# Data from PubChem BioAssay AID1671190 (National Center for Advancing Translational Sciences (NCATS), 2021).
# Protein sequences, listed by entry. Tags and fused reporters are not part of them. Lines headed by an entry give the natural chain unless they say otherwise; changes in a name come on top.
# UniProt P18054: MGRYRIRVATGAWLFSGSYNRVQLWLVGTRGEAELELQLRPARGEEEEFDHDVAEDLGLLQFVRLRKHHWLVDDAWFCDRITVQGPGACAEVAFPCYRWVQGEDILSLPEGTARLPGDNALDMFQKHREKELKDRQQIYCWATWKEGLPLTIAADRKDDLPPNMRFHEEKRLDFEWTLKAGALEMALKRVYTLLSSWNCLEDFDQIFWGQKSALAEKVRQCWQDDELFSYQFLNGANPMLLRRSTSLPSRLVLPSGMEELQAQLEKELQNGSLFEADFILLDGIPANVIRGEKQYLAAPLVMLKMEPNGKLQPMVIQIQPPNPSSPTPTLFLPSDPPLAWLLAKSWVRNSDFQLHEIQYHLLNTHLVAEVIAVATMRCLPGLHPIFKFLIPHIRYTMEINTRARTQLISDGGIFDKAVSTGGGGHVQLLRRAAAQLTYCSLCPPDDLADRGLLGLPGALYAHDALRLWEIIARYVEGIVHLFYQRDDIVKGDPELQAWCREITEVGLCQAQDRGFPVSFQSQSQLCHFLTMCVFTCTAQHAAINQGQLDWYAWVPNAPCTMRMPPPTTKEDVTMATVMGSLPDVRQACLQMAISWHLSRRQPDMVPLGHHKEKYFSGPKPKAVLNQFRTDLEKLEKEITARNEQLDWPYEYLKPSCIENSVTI
# Hit rate of the full screen: of about 580,000 compounds, about 6,100 (1.1%) were called active. The shares of active, inactive and inconclusive entries below differ from those in the screen. Calls follow the shape of the dose curve; as a rule, active = well fitted inhibition curve with a large enough effect; inconclusive = small, poorly fitted or top-dose-only effect, or another doubt; inactive = no such curve, though single readings can be large or run the other way. Potencies of inconclusive entries are doubtful fits and often do not repeat.
# Molecular target: Polyunsaturated fatty acid lipoxygenase ALOX12 (Homo sapiens) (UniProt P18054)
# Experiment: Primary qHTS assay for inhibitors of human arachidonate 12S-lipoxygenase (ALOX12): Round 2
# Conditions: purified 12hLO, xylenol orange hydroperoxide absorbance; activity change, negative = inhibition: at 108 µM (top of the series) unless noted
# How it was run: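 Purified human 12hLO at 150 nM in 25 mM Hepes, 0.01% Triton X-100, pH 7.0, preincubated 15 min at room temperature with compound. Reaction started with 40 uM arachidonic acid, 30 min at room temperature. Hydroperoxide measured by Fe-xylenol orange, 573/405 nm absorbance ratio.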
# % is scaled to controls: 0 for no effect and ±100 for the full control effect; potency is read from the fitted curve at half-maximal effect.
SMILES,Potency,"activity change, negative = inhibition"
Cc1cc(NC(=O)Cn2nc(C(F)(F)F)c3c2CCC3)n(-c2ccccc2)n1,"inconclusive: 0.251 µM [inhibitor, single point]",
O=C(CN1CCOCC1)NCCC12CC3CC(CC(C3)C1)C2,"inconclusive: 44.7 µM [inhibitor, partial curve, poor fit]",
Cc1onc(-c2ccccc2)c1C(=O)n1nnc2ccccc21,,inactive: 0%
Cc1cccn2cc(CNC(=O)c3ccc(Br)o3)nc12,"inconclusive: 0.398 µM [inhibitor, full curve, poor fit]",
CN1CCC(N(C)CC(=O)Nc2ccccc2N2CCOCC2)CC1,"inconclusive: 0.355 µM [inhibitor, full curve, poor fit]",
Cc1ccc(C2CC(c3ccccc3)=NN2c2ccccc2)o1 (configuration not stated),"inconclusive: 10 µM [inhibitor, full curve]",
CNc1c(NC(=O)Nc2ccc(Br)cc2F)c(=O)oc2ccccc12,"inconclusive: 100 µM [inhibitor, partial curve, poor fit]",
CSc1cccc(N2CC(C(=O)NCCN3C(=O)S/C(=C\c4cccnc4)C3=O)CC2=O)c1 (configuration not stated),"inconclusive: 20 µM [inhibitor, full curve, poor fit]",
O=S(=O)(Nc1nc2ccccc2nc1NCc1ccc(F)cc1)c1cccc2nsnc12,,inactive: -6.24%
CC1=CC(=O)C(C(=O)/C=C/c2ccc(C)s2)C(=O)O1 (configuration not stated),active: 14.1 µM,
Brc1ccccc1-n1nnc(-c2ccnc3ccccc23)n1,"inconclusive: 39.8 µM [inhibitor, partial curve, poor fit]",
Cc1ccc2nc(CN3CCN(S(=O)(=O)c4cccc(C(F)(F)F)c4)CC3)cn2c1,"inconclusive: 5.62 µM [inhibitor, full curve, poor fit]",
Cc1ccc(S(=O)(=O)NN=C2CCc3ccccc32)cc1,"inconclusive: 44.7 µM [inhibitor, partial curve, poor fit]",
[O-]/[N+](=C\c1ccc2ccccc2n1)c1ccccc1,active: 11.2 µM,
CC1CCN(C(c2nnnn2CCc2ccccc2)C(C)C)CC1 (configuration not stated),,inactive: -16.4%
Cc1ccc2c(=O)cc(C(=O)Nc3c(C)n(C)n(-c4ccccc4)c3=O)oc2c1,"inconclusive: 7.94 µM [inhibitor, partial curve, poor fit]",
COc1ccccc1N1CCN(C(=O)C2CCCN(S(=O)(=O)c3ccc4c(c3)CCCN4C(C)=O)C2)CC1 (configuration not stated),"inconclusive: 100 µM [inhibitor, partial curve, poor fit]",
COc1cc(OC(F)(F)F)ccc1C(=O)NCc1nnc2n1C(C(=O)O)CC2 (configuration not stated),"inconclusive: 10 µM [inhibitor, full curve, poor fit]",
COc1cc(NS(=O)(=O)c2cc(-c3cnc(C)o3)ccc2C)cc(OC)c1,,inactive: 5.26%
Cn1c(=O)[nH]c(=O)c2c1nc(SCCO)n2Cc1cccc(Br)c1,,inactive: -28.8%
CC(=O)C1=C(O)C(=O)N(CCC(=O)O)C1c1ccccc1Cl (configuration not stated),"inconclusive: 2.24 µM [inhibitor, full curve, poor fit]",
Cc1sc(NC2CCCC2)nc1-c1ccc(NS(C)(=O)=O)cc1,"inconclusive: 3.98 µM [inhibitor, full curve, poor fit]",
NC(=S)NC(=O)c1ccccc1,"inconclusive: 39.8 µM [inhibitor, partial curve, poor fit]",

# 3 records drawn at random from those above:
SMILES,Potency,"activity change, negative = inhibition"
O=S(=O)(Nc1nc2ccccc2nc1NCc1ccc(F)cc1)c1cccc2nsnc12,,inactive: -6.24%
O=C(CN1CCOCC1)NCCC12CC3CC(CC(C3)C1)C2,"inconclusive: 44.7 µM [inhibitor, partial curve, poor fit]",
CNc1c(NC(=O)Nc2ccc(Br)cc2F)c(=O)oc2ccccc12,"inconclusive: 100 µM [inhibitor, partial curve, poor fit]",

# Carrying on:

SMILES,Potency,"activity change, negative = inhibition"
COc1ccc(CC(N)c2csc(NC(=O)Nc3ccc(F)cc3)n2)cc1 (configuration not stated),"inconclusive: 44.7 µM [inhibitor, partial curve, poor fit]",
COc1cc(Cl)c(C)cc1NC(=O)c1cnc(N2CCCCC2)c2ccccc12,"inconclusive: 63.1 µM [inhibitor, partial curve, poor fit]",
O=C(Oc1c(-c2ccccc2)c(=O)n2c3c(cccc13)CC2)c1cccc([N+](=O)[O-])c1,"inconclusive: 63.1 µM [inhibitor, partial curve, poor fit]",
CC1CCCC(C)N1C(=O)COC(=O)c1ccc[nH]c1=O (configuration not stated),"inconclusive: 31.6 µM [inhibitor, single point]",
CCOc1c(Br)cc(/C=C/C(=O)c2cccc(OC)c2)cc1OC,,inactive: -10.6%
CSc1ccccc1NC(=O)Cc1ccc(Br)cc1,,inactive: -6.84%
O=C(NC1(C(F)(F)F)C(=O)Nc2c1c(=O)[nH]c(=O)n2-c1ccc(F)cc1)c1cccnc1 (configuration not stated),"inconclusive: 39.8 µM [inhibitor, partial curve, poor fit]",
C/C(=N\Nc1cccc(C(=O)O)c1)c1ccc(Cl)s1,"inconclusive: 100 µM [inhibitor, partial curve, poor fit]",
CC(C)Cn1c(-c2cccc(Br)c2)nc2ccccc21,"inconclusive: 50.1 µM [inhibitor, partial curve, poor fit]",
O=C(CN1CCN(C(=O)c2ccc(OCC(F)(F)F)nc2)CC1)Nc1ccccc1Cl,,inactive: 0.564%
Cc1cc(C(=O)NCc2c(C)ncc3c2CCNC3)ccc1F,"inconclusive: 7.08 µM [inhibitor, full curve]",
O=C(CSc1nc2ccccc2nc1Cc1ccc(Cl)cc1)N1CCN(c2ccccc2)CC1,,inactive: -7.14%
CCNc1c(NC(=O)Nc2ccc(Br)cc2)c(=O)oc2ccccc12,"inconclusive: 100 µM [inhibitor, single point]",
COc1cc(-c2cc(C(=O)O)c3ccccc3n2)ccc1O,"inconclusive: 44.7 µM [inhibitor, partial curve]",
COc1ccc(CSc2nnc(-c3ccncc3)n2N)cc1,"inconclusive: 50.1 µM [inhibitor, single point]",
COc1ccccc1NC(=O)c1cc(-c2ccccn2)n[nH]1,"inconclusive: 50.1 µM [inhibitor, partial curve, poor fit]",
Cc1nn(-c2ccccc2)c2nc(C(Cl)(Cl)Cl)[nH]c(=O)c12,"inconclusive: 14.1 µM [inhibitor, full curve, poor fit]",
CSc1ccc(/C=N/Nc2ccc(S(N)(=O)=O)cc2[N+](=O)[O-])cc1,"inconclusive: 35.5 µM [inhibitor, single point]",
O=C(Nc1ccccc1-c1nc(Cc2ccccc2)no1)c1ccncc1,,inactive: 16.5%
NC(=O)[C@@H](Cc1c[nH]c2ccccc12)NC(=O)[C@@H]1C[C@@H](NS(=O)(=O)c2cccs2)CCN1C(=O)[C@@H](O)[C@H](O)C(=O)O,,inactive: 12.5%
CN1C(=O)/C(=C/c2ccccc2Cl)Sc2ccc(C(=O)N3CCCC3)cc21,,inactive: -3%
Cn1ccc2c(N3CCCCC3)cc3c(c21)C1CCC3C1 (configuration not stated),"inconclusive: 50.1 µM [inhibitor, partial curve, poor fit]",
CCCC(=O)Nc1nc2nc(CCC)cc(=O)n2[nH]1,"inconclusive: 3.98 µM [inhibitor, full curve, poor fit]",

# A run of entries from further up, as a working copy:
SMILES,Potency,"activity change, negative = inhibition"
Cc1nn(-c2ccccc2)c2nc(C(Cl)(Cl)Cl)[nH]c(=O)c12,"inconclusive: 14.1 µM [inhibitor, full curve, poor fit]",
CSc1ccc(/C=N/Nc2ccc(S(N)(=O)=O)cc2[N+](=O)[O-])cc1,"inconclusive: 35.5 µM [inhibitor, single point]",

# More compounds follow.

SMILES,Potency,"activity change, negative = inhibition"
Cc1cc(C)c(CCNC(=O)NNc2nc(C)cc(C)n2)c(C)c1,"inconclusive: 158 µM [inhibitor, partial curve, poor fit]",
CCN(CC(=O)Nc1c(F)cccc1F)C(=O)C1CC(=O)N(Cc2ccccc2)C1 (configuration not stated),,inactive: 0.513%
CCc1c(C)c2cc3c(c(C)c2oc1=O)OCN(CCc1ccccc1F)C3,,inconclusive: -43.5% [inhibitor]
COc1ccc(OC)c(NS(=O)(=O)c2ccc(NC(=O)C3COc4ccccc4O3)cc2)c1 (configuration not stated),,inactive: -15.4%
O=C(N/N=C/c1c(O)n(Cc2ccccc2)c(=O)c2ccccc12)c1cccnc1,,inactive: -5.28%
CCOC(=O)c1ccc(CN2C(=O)C(n3cccc3)c3ccccc32)o1 (configuration not stated),"inconclusive: 39.8 µM [inhibitor, partial curve, poor fit]",
O=C(CNC(=O)c1ccccc1Cl)N/N=C/c1ccc([N+](=O)[O-])s1,,inactive: -1.04%
CCN(C(=O)CN1C(=S)NC(C)(C)CC1C)c1ccc(C)c(C)c1 (configuration not stated),"inconclusive: 44.7 µM [inhibitor, partial curve, poor fit]",
O=C(N[C@@H](Cc1c[nH]c2ccccc12)C(=O)O)c1ccc(Cl)cc1F,"inconclusive: 158 µM [inhibitor, single point]",
CCN1CCN(c2oc(-c3ccc(S(=O)(=O)N4CCOCC4)cc3)nc2C#N)CC1,,inactive: 1.54%
CCc1n[nH]c(=S)n1/N=C/C(C)=C\c1ccccc1,"inconclusive: 56.2 µM [inhibitor, partial curve, poor fit]",
O=Nc1c(O)[nH]c2ccc(Cl)c(Cl)c12,"inconclusive: 79.4 µM [inhibitor, partial curve, poor fit]",
CCOc1ccc(CN2CCNC(=O)C2CC(=O)O)cc1 (configuration not stated),,inactive: 1.69%
COc1ccc2c(=O)c3c(=O)n(Cc4ccco4)c(-c4ccco4)nc3oc2c1,"inconclusive: 11.2 µM [inhibitor, full curve, poor fit]",
Cn1c(N)c(C(=O)COC(=O)/C=C/c2cccc(Br)c2)c(=O)n(C)c1=O,"inconclusive: 35.5 µM [inhibitor, partial curve, poor fit]",
CCOc1ccc(/C=C2\SC(=S)N(CC(=O)Nc3ccccn3)C2=O)cc1,,inactive: -1.44%
CC12C=CC(C)(C3C(=O)NC(=O)C31)C1C3C(=O)NC(=O)C3C12 (configuration not stated),"inconclusive: 39.8 µM [inhibitor, partial curve, poor fit]",
N#CCSC1=Nc2ccccc2C2=NC(CCC(=O)N3CCN(c4ccccc4)CC3)C(=O)N12 (configuration not stated),,inactive: -16.4%
COc1cc(/C=N/NC(=O)CSc2cc(C)c(Br)cc2C)ccc1O,,inactive: -6.07%
CCC(C)Sc1nc(C)nc2c1c(=O)n(C)c(=O)n2C (configuration not stated),"inconclusive: 44.7 µM [inhibitor, partial curve, poor fit]",
COc1ccc(NC(=O)c2ccc(-n3cccn3)cc2)c(OC)c1,,inactive: 16.5%
